Among all 200,000 compounds or so, about 10 (0.005%) were called active. Only results without a clear call are listed here; the source files them as inconclusive. Calls follow the shape of the dose curve; as a rule, active = well fitted inhibition curve with a large enough effect; inconclusive = small, poorly fitted or top-dose-only effect, or effect the other way, or another doubt; inactive = no such curve, though single readings can be large or run the other way.
Each compound was assayed against Lysosomal alpha-glucosidase (Homo sapiens) (UniProt P10253) (assay: qHTS Assay for Inhibitors of Human alpha-Glucosidase as a Potential Chaperone Treatment of Pompe Disease). Conditions: purified human GAA, 4-MU-alpha-glucoside fluorescence.
Potency is read from the fitted curve at half-maximal effect.

Row | SMILES | Potency
1 | Fc1ccccc1NC1CCN(Cc2ccccc2)CC1 | inconclusive: 1.12 µM
2 | CCC(CO)(C(=O)OC1CN2CCC1CC2)c1ccccc1 (configuration not stated) | inconclusive: 0.562 µM

Source: PubChem BioAssay AID1466 (National Center for Advancing Translational Sciences (NCATS), 2008)
